Results on three molecules are retold here after EP0006845A1, “Pharmaceutical composition comprising a 5-aroyl-1-C1-5 alkyl-pyrrole-2-acetic acid compound and acetaminophen or acetylsalicylic acid” (McNeilab, Inc., priority 1978, dated 1980).

For data set [1], the system named is adjuvant arthritic rats. The data set can be described thus: adjuvant arthritis test, evaluation of bone degeneration (osteogenic changes) in the non-injected hind paw. The format is in vivo, female Wistar, Lewis rats. The settings on record: drug alone, data from several experiments pooled. The text has this:
(§1) The efficacy of the novel combination of this invention in inhibiting inflammation and osteogenic degeneration is particularly seen in the adjuvant arthritis test. […] The adjuvant arthritis test, a test in which adjuvant arthritis which results both in inflammation and osteogenic changes is induced by Mycobacterium butvricum and in which the effect of the test compounds on each effect can be Determined, is considered to be .most useful for evaluation of compounds which may be suitable for the treatment of rheumatoid arthritis and other arthritic diseases. The test procedure, in which the effect on inflammation is determined by paw volume changes and the effect on osteogenic changes is determined by microscopic observation, is described by Wong et al, in J. Pharmacol.Exp.Ther. 185, 127-138, 1973, and is employed in the present determination of the potentiation of the antiarthritic properties of 5-aroyl-l-loweralkyl-pyrrole-2-acetic acid derivatives by aspirin or acetaminophen.
Briefly, in this procedure, adjuvant arthritis is induced in female Wistar, Lewis rats (Charles River Breeding Laboratories. Inc., Wiimington, Mass.) weighing 160-190 gm by a single subcutaneous injection of 0.75 mg Mycobacterium butyricum (Difco) into the left hind paw. The non-injected hind paw remains a normal size for the first seven days. […] Using the paw volume determination technique (a technique in which rat paws are dippedin mercury to the hairline and the volume of displacement determined by a modified Van Arman mercury displacement method as described in the aforementioned paper of Wong et al), the time progress curve of volume changes in the non-injected (contralateral) paw is followed. […]
For evaluation of bone degenerations, normal and adjuvant arthritic rats are sacrificed under C02, after the paw volume measurements have been completed on Day 28. […] The distal end of the tibiae, the tarsals, metatarsals, phalanges, and sesamoids are evaluated under a Stereozoom Microscope (a special type of dissecting microscope, product of Bausch and Lomb). […]

In data set [2] the test system is adjuvant arthritic rats. The data set can be described thus: adjuvant arthritis test, evaluation of paw volume of the non-injected hind paw. The class given is in vivo, female Wistar, Lewis rats.
Description: as §1, with “acetaminophen. […]” for “acetaminophen.”
For evaluation of paw volume, adjuvant arthritic rats with early but significant signs of arthritis in the contralateral paw are selected on Day 11 and randomly assigned to the various groups of 10 animals in each group. […] The paw volumes of the non-injected paws are determined initially on Day 11 and again on Days 15, 18, 22, 25, and 28. […]

Regarding `Cc1ccc(C(=O)c2ccc(CC(=O)O)n2C)cc1` [Tolmetin, 1-methyl-5-p-toluoyl-pyrrole-2-acetic acid], the “regression coefficient of the dose response curve for osteogenic change and its 95 percent C.L.” value in data set [1] is 28.9 (27.6-30.2).
Take `CC(=O)Nc1ccc(O)cc1` [Acetaminophen, acetaminophen]: the “regression coefficient (slope of the dose-response curve) and its 95 percent C.L.” value in data set [2] (decrease in the requirement for tolmetin vs logarithmic dose of acetaminophen) is 23.4 (13.6-33.3). In data set [1], the “regression coefficient of the dose response curve for osteogenic change and its 95 percent C.L.” value is listed as 32.3 (31.0-33.6).
As to `CC(=O)Oc1ccccc1C(=O)O` [Aspirin, acetylsalicylic acid], in data set [2] (decrease in the requirement for tolmetin vs logarithmic dose of aspirin), the “regression coefficient and its 95 percent C.L.” value is on record as 25.1 (17.8 - 32.5). Besides, in data set [1], the “regression coefficient of the dose response curve for osteogenic change and its 95 percent C.L.” value was 33.4 (32.1 - 34.6).
